Columns and labels:
HeLa cells = test: Live cell fluorescence imaging: localization, co-localization and uptake; format: cell-based
Description: FIG. 6 depicts live cell imaging of HeLa cells. 500 nM mitotracker Red was bath-applied along with 1 μM DA-ZP1-TPP for 30 min at 37° C. and 5% CO2. After exposure to 25 μM 1:2 zinc:pyrithione, fluorescent images were acquired and the co-localization of the two sensors was assessed. The calculated Pearson's correlation coefficient (r) was r=0.581±0.097 (n=9), which represents the average of 9 ROIs over three independent plates.
FIG. 14 depicts live cell imaging of HeLa cells. 1 μM Lysotracker Red was bath-applied along with 2 μM ZP1-TPP. The calculated Pearson's correlation coefficient (r) was r=0.45±0.15, which represents the average of 9 ROIs over three independent plates.
FIG. 24 depicts fluorescence images of live HeLa cells. HeLa cells were pretreated with a 1 μM solution of DA-ZP1-TPP in dye- and serum-free medium for 30 min (37° C., 5% CO2). […] The signal from MitoTracker Red (c) correlates well with the signal from the zinc-bound sensor (d). Pearson's r=0.64±0.1 (n=18).
FIG. 27 depicts deconvoluted fluorescence microscopy images of live HeLa cells pretreated with ZP1-R9 (5 μM) or DA-ZP1-R9 (2.5 μM) and the indicated organelle stain. Top, ZP1-R9: (a) Differential interference contrast (DIC) image, (b) signal from ZP1-R9, (c) signal from LysoTracker Red, (d) overlay of (b) and (c). Pearson's r=0.42±0.16 (n=8). Bottom, DA-ZP1-R9: (e) DIC, (f) signal from DA-ZP1-R9 after treatment with 25 μM ZnPT, (g) signal from Hoechst 33258, (h) overlay of (f) and (g). Scale bar=25 μm.
FIG. 29 depicts deconvoluted fluorescence microscopy images of live HeLa cells pretreated with 1 μM DA-ZP1-R9 and 100 nM Dextran Red. (a) Differential interference contrast (DIC), (b) signal from DA-ZP1-R9 after addition of 25 μM ZnPT (c) signal from Dextran Red, (d) overlay of (b) and (c). Pearson's r=0.55±0.12 (n=11). Scale bar=25 μm.
FIG. 31 depicts deconvoluted fluorescence microscopy images of ZP1-(Fxr)3 and DA-ZP1-r(Fxr)3 in live HeLa cells. Top, cells pretreated with medium containing 2.5 μM of ZP1-(Fxr)3: (a) Differential interference contrast (DIC) image, (b) signal from ZP1-(Fxr)3, (c) signal from Dextran Red, (d) overlay of (b) and (c). Pearson's r=0.71±0.07. Bottom, cells pretreated with 1 μM DA-ZP1-r(Fxr)3: (e) DIC, (f) signal from DA-ZP1-r(Fx)3 after treatment with 25 μM ZnPT, (g) signal from MitoTracker Red, (h) overlay of (f) and (g). Pearson's r=0.41±0.09. Scale bar=25 μm.
FIG. 33 depicts deconvoluted fluorescence microscopy images of DCF-r(Fxr)3 and DA-DCF-r(Fxr)3 in live HeLa cells. Top, cells pretreated with 5 μM DCF-r(Fxr)3 and 500 nM MitoTracker Red for 30 min. (a) differential contrast image (DIC), (b) signal from DCF-r(Fxr)3, (c) signal from MitoTracker Red. Bottom, cells pretreated with 5 μM DA-DCF-r(Fxr)3 and 500 nM MitoTracker Red for 30 min. (d) DIC, (e) signal from DCF-r(Fxr)3, (f) signal from MitoTracker Red. The global Pearson's r=0.57±0.16 (n=37). Cells with high levels of DA-DCF-r(Fxr)3 (e, red outline) have a higher Pearson's r=0.83±0.08 (n=10). Scale bar=25 μm.
We used HeLa cells as a model system to evaluate the ability of DA-ZP1-TPP to target mitochondria and respond to changes in intracellular zinc levels. […] Over a two-hour period, the fluorescence intensity from the sensor remained constant, implying that the acetylated form is stable against intracellular esterases (FIG. 24e). […] Addition of 100 μM TPEN attenuated the fluorescence signal by ˜2.4-fold (FIG. 24f). […]

[1] = Zinc-induced fluorescence response in cuvette (turn-on, quantum yield); format: physicochemical
Description: FIG. 2 depicts the normalized fluorescent spectra of DA-ZP1-TPP (also referred to as Ac2-ZP1-TPP) and ZP1-TPP in the absence (dashed line) and presence (solid line) of excess ZnCl2. Inset: The y-axis is magnified to aid in the visualization of the ˜7-fold “turn-on” of ZP1-TPP.
FIG. 20 depicts Zn(II)-dependent fluorescence signal enhancement of DA-ZP1-TPP. (a) Normalized fluorescence spectra of a 1 μM solution of DA-ZP1-TPP, in 50 mM PIPES buffer (pH 7) with 1 mM EDTA, 2 mM CaCl2, and 100 mM KCl, upon increasing concentrations of free zinc ions. (b) Zinc binding isotherm for the data in (a), normalized to the fluorescence signal under zinc saturating conditions (λex=495 nm).
Spectra were acquired in 50 mM PIPES (pH 7) with 100 mM KCl. For this titration, a single excitation wavelength of λex=485 nm was used.
The diacetylated version of ZP1-TPP, designated DA-ZP1-TPP, was readily prepared by reacting ZP1-TPP with acetic anhydride overnight at room temperature. Over the course of the reaction, the mixture turned from a dark, salmon-colored solution to a light, nearly colorless liquid, which was purified by HPLC. […] Addition of nanomolar concentrations of zinc ions results in a large increase in both the absorption λabs-Zn=510 nm) and fluorescence (λem-Zn=529 nm, FIG. 20a) spectral bands of DA-ZP1-TPP. These optical changes combine to yield a >140-fold increase in the fluorescence signal (ΦZn=0.75±0.03, FIG. 20). […] Whether the mode of zinc-mediated ester hydrolysis proceeds by internal or external hydroxide attack remains to be determined. […] Addition of a chelator (EDTA) attenuates the fluorescence signal ˜5-fold (Φ=0.15±0.02) in the cuvette (FIG. 22) with a concomitant redshift in the absorption spectrum (λabs=522 nm). Reversibility of the fluorescence signal is an important feature for zinc-responsive probes, because it allows confirmation that the observed increase in fluorescence signal is due to Zn(II) and not the result of an artifact. […]
Using DA-ZP1-A3 as a model system, we assessed its photophysical and zinc-binding properties (FIG. 26). […]

SMILES | Pearson's r, co-localization with MitoTracker Red (HeLa cells; live HeLa cells) | Pearson's correlation coefficient (r), co-localization with mitotracker Red (HeLa cells; live HeLa, 500 nM mitotracker Red, 1 μM probe, 25 μM 1:2 zinc:pyrithione, 9 ROIs) | quantum yield Φ after addition of chelator (EDTA) ([1]; EDTA added after zinc) | quantum yield ΦZn ([1]; after addition of zinc) | quantum yield Φ of acetylated pro-sensor, metal-free ([1]; before zinc addition) | Pearson's r, co-localization with LysoTracker Red (HeLa cells; live HeLa cells)
O=C(NCC[P+](c1ccccc1)(c1ccccc1)c1ccccc1)c1cc2cc3c4c(c2oc1=O)CCCN4CCC3 [C343-TPP] | 0.72±0.02 |  |  |  |  | 
CC(=O)Oc1c(Cl)cc2c(c1CN(Cc1ccccn1)Cc1ccccn1)Oc1c(cc(Cl)c(OC(C)=O)c1CN(Cc1ccccn1)Cc1ccccn1)C21OC(=O)c2ccc(C(=O)NCC[P+](c3ccccc3)(c3ccccc3)c3ccccc3)cc21 [DA-ZP1-TPP] | 0.64±0.1 | 0.581±0.097 | 0.15±0.02 | 0.75±0.03 | ≤ 0.001 | 
O=C(NCC[P+](c1ccccc1)(c1ccccc1)c1ccccc1)c1ccc2c(c1)C1(OC2=O)c2cc(Cl)c(O)c(CN(Cc3ccccn3)Cc3ccccn3)c2Oc2c1cc(Cl)c(O)c2CN(Cc1ccccn1)Cc1ccccn1 [ZP1-TPP] | −0.15±0.07 |  |  |  |  | 0.45±0.15

Source: US9700637B2 (Massachusetts Institute of Technology, priority 2013, dated 2017)
